Test results: patent US20210220432A1, “Application of Polypeptide in Preparation of Composition for Preventing and Treating Human Papillomavirus Infection” (GENLOCI BIOTECHNOLOGIES INC., priority 2018, published 2021)
At least one peptide structure holds a part that was inferred or is arguable (an end, a ring closure or a residue). No end group written: not given here.

How the values were obtained:
[1] = system: HPV6/11 virus; assay: Quantitative detection of HPV6/11 in prostate fluid by FQ-PCR after incubation with the polypeptide; design: species or system HPV6 and 11; conditions: prostate fluid precipitation, 37° C., 24 hours, blank control 6.74 × 10^7
[2] = system: Lactobacillus; assay: Bacteriostatic test of the polypeptide against Lactobacillus (zone of inhibition); type: cell-based

## MGRFKRFRKKFKKLFKKLS [The polypeptide]
[1]; polypeptide 0.01%
  HPV6/11 quantitative detection value by FQ-PCR: 3.86 × 10^4
[1]; polypeptide 0.01%, listed as the polypeptide
  HPV6/11 quantitative detection value by FQ-PCR: decreased significantly
[1]; polypeptide 0.1%
  HPV6/11 quantitative detection value by FQ-PCR: <2.5 × 10^3
[1]; polypeptide 0.1%, listed as the polypeptide
  HPV6/11 quantitative detection value by FQ-PCR: below the detection limit
[1]; polypeptide 0.5%
  HPV6/11 quantitative detection value by FQ-PCR: <2.5 × 10^3
[2]; polypeptide 0.1 mg
  Antibacterial effect, zone of inhibition: no antibacterial effect
[2]; polypeptide 0.5 mg
  Antibacterial effect, zone of inhibition: no antibacterial effect
